Reference: PubChem BioAssay AID504804 (Drosophila RNAi Screening Center, 2011)

Aim: 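Knock-downs shielding fly cells from apoptosis caused by DNA damage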 (primary screen)
Cell system: Drosophila Kc cells
Knock-down reagent: long dsRNA against Drosophila genes, 0.5 µg dsRNA per well
Time to read-out: 96 h (48 h knock-down, then 48 h drug)
Conditions: doxorubicin 5 µg/ml for 48 h, added 48 h after dsRNA
Detection: 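Luminescent ATP counts per replicate, not normalised, reflecting viable cells after 48 h dsRNA knock-down followed by 48 h of 5 µg/ml doxorubicin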
Reading the numbers: raw ATP luminescence: higher = more viable cells, protection from doxorubicin
Active means: 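z-score of 2 or more over plate mean in both duplicates, retained only when retests and separate dsRNAs confirm the protection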
The screen tested about 19,000 reagents; below is a random part of those with a known target gene and a result. Of all reagents, 47 (0.25%) are marked active. 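Signals are raw, not normalised; exact z-scores behind calls not deposited; actives needed confirmation, so some wells reaching 2 SD are inactive.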 No sequences are given here.

The first 2 records, to show the layout:
Vago (GeneID 32040) [DRSC19833] → raw ATP luminescence, replicate 1 = 3.17e5; raw ATP luminescence, replicate 2 = 3.59e5; activity call = inactive
Rpn13R (GeneID 31433) [DRSC18404] → raw ATP luminescence, replicate 1 = 42710; raw ATP luminescence, replicate 2 = 35810; activity call = inactive

The listing, from the start:
Vago (GeneID 32040) [DRSC19833] → raw ATP luminescence, replicate 1 = 3.17e5; raw ATP luminescence, replicate 2 = 3.59e5; activity call = inactive
Rpn13R (GeneID 31433) [DRSC18404] → raw ATP luminescence, replicate 1 = 42710; raw ATP luminescence, replicate 2 = 35810; activity call = inactive
RpL36A (GeneID 34098) [DRSC03055] → raw ATP luminescence, replicate 1 = 34763; raw ATP luminescence, replicate 2 = 39850; activity call = inactive
Tsp42Eh (GeneID 35617) [DRSC06190] → raw ATP luminescence, replicate 1 = 48517; raw ATP luminescence, replicate 2 = 70867; activity call = inactive
HDAC11 (GeneID 326120) [DRSC14280] → raw ATP luminescence, replicate 1 = 62550; raw ATP luminescence, replicate 2 = 61140; activity call = inactive
CG7213 (GeneID 38924) [DRSC10787] → raw ATP luminescence, replicate 1 = 62680; raw ATP luminescence, replicate 2 = 78353; activity call = inactive
CG7453 (GeneID 32903) [DRSC20046] → raw ATP luminescence, replicate 1 = 3.50e5; raw ATP luminescence, replicate 2 = 3.00e5; activity call = inactive
CG12715 (GeneID 32252) [DRSC19492] → raw ATP luminescence, replicate 1 = 3.31e5; raw ATP luminescence, replicate 2 = 3.36e5; activity call = inactive
CG13607 (GeneID 42859) [DRSC14610] → raw ATP luminescence, replicate 1 = 62060; raw ATP luminescence, replicate 2 = 60650; activity call = inactive
unc-45 (GeneID 44910) [DRSC15449] → raw ATP luminescence, replicate 1 = 56317; raw ATP luminescence, replicate 2 = 58947; activity call = inactive
CG17264 (GeneID 33511) [DRSC00500] → raw ATP luminescence, replicate 1 = 97017; raw ATP luminescence, replicate 2 = 61650; activity call = inactive
spir (GeneID 45931) [DRSC03619] → raw ATP luminescence, replicate 1 = 49937; raw ATP luminescence, replicate 2 = 62020; activity call = inactive
CG42233 (GeneID 43754) [DRSC14328] → raw ATP luminescence, replicate 1 = 59500; raw ATP luminescence, replicate 2 = 56480; activity call = inactive
CG42233 (GeneID 43754) [DRSC15416] → raw ATP luminescence, replicate 1 = 45790; raw ATP luminescence, replicate 2 = 71690; activity call = inactive
fng (GeneID 40314) [DRSC11455] → raw ATP luminescence, replicate 1 = 62440; raw ATP luminescence, replicate 2 = 74057; activity call = inactive
fng (GeneID 40314) [DRSC11887] → raw ATP luminescence, replicate 1 = 20533; raw ATP luminescence, replicate 2 = 19820; activity call = inactive
CG5895 (GeneID 39752) [DRSC10554] → raw ATP luminescence, replicate 1 = 69347; raw ATP luminescence, replicate 2 = 53987; activity call = inactive
CG31954 (GeneID 33572) [DRSC00580] → raw ATP luminescence, replicate 1 = 1.03e5; raw ATP luminescence, replicate 2 = 77403; activity call = inactive
eIF4B (GeneID 3355041) [DRSC20983] → raw ATP luminescence, replicate 1 = 2.81e5; raw ATP luminescence, replicate 2 = 2.92e5; activity call = inactive
